Assay results: PMC5325215
No constants are given. Whether binding was seen depends on the method and setting. In cells and extracts the contact can be indirect. For part of these data: Binding calls can cover weak binding; strength is not graded here. Sequences can lack the tags named with a protein. Each block holds one molecule with its values, some of them ahead of it.

Experiments:
[1] = molecular target: T1, 3 x FLAG tagged full-length FILIP (rat L-FILIP) (rat) (UniProt Q8K4T4); experiment: co-IP; COS-7 cells transfected with FLAG-tagged FILIP or deletion mutants; immunoprecipitation with anti-FLAG M2 on Protein G Dynabeads, 4°C, 3 hours; blots with anti-Hsc70 or anti-NMHCIIb; in Fig 4E also with expression of Hsc70 or Hsc70 K71M
T1 sequence: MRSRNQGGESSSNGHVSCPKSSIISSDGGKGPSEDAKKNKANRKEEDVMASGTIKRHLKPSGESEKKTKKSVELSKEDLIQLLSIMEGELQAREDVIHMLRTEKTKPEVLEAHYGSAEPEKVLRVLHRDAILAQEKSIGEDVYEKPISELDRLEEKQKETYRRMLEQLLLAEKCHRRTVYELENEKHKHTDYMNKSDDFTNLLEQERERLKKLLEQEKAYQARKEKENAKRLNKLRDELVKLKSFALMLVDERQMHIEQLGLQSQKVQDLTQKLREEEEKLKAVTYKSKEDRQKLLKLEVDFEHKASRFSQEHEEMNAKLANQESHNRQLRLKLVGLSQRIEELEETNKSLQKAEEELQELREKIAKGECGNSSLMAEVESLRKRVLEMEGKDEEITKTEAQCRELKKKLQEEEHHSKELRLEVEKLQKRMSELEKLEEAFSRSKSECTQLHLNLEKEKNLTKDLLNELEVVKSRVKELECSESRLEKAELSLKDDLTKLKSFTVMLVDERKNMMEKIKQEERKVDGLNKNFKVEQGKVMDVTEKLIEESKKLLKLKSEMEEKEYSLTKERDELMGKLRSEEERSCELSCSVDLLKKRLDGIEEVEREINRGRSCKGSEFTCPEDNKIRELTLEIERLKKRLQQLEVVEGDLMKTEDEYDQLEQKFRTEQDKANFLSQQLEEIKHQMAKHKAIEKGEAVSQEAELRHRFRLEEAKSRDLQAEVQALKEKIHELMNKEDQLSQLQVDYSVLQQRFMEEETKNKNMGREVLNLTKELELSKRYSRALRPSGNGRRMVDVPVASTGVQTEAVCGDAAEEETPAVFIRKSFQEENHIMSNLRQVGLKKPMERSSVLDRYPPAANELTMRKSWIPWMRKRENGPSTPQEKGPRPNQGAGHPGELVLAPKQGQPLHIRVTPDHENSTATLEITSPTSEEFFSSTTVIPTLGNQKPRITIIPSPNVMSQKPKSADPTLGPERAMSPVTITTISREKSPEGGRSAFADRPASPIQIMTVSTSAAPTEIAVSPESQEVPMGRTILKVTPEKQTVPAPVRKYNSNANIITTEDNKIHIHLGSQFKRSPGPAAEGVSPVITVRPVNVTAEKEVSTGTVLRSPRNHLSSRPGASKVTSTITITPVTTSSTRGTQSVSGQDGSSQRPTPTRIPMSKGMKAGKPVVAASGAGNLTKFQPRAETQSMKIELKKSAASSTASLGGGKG

[2] = molecular target: T2, FILIP d872-1111 (3 x FLAG tagged) (rat) (UniProt Q8K4T4); experiment: as above
T2 sequence: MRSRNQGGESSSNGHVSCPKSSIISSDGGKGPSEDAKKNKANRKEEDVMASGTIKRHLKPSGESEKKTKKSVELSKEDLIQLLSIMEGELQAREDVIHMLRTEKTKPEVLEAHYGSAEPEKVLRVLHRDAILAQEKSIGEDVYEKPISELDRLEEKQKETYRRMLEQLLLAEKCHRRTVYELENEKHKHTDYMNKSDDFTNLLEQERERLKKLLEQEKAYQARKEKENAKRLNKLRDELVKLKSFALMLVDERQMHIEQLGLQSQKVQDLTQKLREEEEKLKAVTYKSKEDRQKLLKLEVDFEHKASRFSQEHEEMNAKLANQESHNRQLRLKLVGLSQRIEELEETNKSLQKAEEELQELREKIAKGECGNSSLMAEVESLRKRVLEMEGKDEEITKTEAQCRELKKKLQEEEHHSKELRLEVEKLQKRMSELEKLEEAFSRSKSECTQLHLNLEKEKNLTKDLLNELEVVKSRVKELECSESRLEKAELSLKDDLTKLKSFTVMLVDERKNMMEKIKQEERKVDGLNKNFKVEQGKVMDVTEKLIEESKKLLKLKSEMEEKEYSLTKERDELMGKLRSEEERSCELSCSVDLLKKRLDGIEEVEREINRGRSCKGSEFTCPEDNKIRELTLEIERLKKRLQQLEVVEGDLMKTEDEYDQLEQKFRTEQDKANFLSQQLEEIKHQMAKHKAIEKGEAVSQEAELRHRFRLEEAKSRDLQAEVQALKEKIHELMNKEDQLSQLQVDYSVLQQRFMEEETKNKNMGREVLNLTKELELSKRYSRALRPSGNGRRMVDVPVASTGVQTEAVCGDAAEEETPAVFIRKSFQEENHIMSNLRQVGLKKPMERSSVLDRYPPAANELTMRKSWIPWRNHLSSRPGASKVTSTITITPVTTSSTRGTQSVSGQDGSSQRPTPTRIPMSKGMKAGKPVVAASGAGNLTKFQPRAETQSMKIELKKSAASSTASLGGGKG

[3] = molecular target: Hsc70 (endogenous, COS-7 cells) (African green monkey (endogenous in COS-7)); experiment: co-IP; COS-7 cells transfected with FLAG tagged FILIP; immunoprecipitation with an anti-Hsc70 antibody

- binding [1]: binds
- binding [2]: no binding
Molecule: Hsc70 (endogenous, COS-7 cells)

- binding [3]: binds
B1: 3 x FLAG tagged full-length FILIP (rat L-FILIP) (protein, UniProt Q8K4T4-1 1-1212)
chain: T1 sequence
